These are yes or no findings as the source states them, for the method shown. Some results given as binding are weak or reduced against the parent protein; the word gives no strength.

By UniProt entry, the sequences of proteins in these tests, tags left out. Where a name states a change or a piece, a line headed by the entry shows the natural chain unless it says otherwise.
UniProt Q8NBP7: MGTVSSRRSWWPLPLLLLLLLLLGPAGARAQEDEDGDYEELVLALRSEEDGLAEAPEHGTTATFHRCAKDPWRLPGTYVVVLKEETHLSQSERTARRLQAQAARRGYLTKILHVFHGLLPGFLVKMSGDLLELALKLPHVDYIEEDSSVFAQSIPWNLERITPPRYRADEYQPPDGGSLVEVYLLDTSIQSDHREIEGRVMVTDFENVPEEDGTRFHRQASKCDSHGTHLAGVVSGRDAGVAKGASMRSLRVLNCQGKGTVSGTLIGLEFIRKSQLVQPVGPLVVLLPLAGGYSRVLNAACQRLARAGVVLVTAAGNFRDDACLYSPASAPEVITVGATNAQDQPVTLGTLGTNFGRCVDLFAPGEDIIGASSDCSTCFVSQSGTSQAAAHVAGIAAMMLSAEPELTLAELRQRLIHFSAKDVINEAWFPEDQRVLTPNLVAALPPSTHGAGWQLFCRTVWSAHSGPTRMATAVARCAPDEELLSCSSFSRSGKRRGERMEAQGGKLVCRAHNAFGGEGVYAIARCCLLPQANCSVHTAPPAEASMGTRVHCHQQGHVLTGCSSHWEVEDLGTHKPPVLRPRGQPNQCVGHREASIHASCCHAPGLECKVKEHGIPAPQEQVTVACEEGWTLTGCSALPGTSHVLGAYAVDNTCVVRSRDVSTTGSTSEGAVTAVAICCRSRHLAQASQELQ

Among the data in patent US20200283478A1 are binding values, retold here.

B1: Compound 23 (peptide)
peptide: SPCRVGYTPC
modifications: Ac-; -NH2
B2: Compound 33 (peptide)
peptide: SGSGCFIPWNLQRIGLLC
modifications: FAM (5-carboxyfluorescein) at N-terminus; -NH2; disulfide
B3: Compound 34 (peptide)
peptide: SGSGCRLPWNLQRIGLPC
modifications: FAM (5-carboxyfluorescein) at N-terminus; -NH2; disulfide
B4: Compound 55 (peptide)
peptide: DLMPWNLVRIGLAR
modifications: Ac-; -NH2
B5: Compound 45 (peptide)
peptide: ALMPWNLVRIGLLR
modifications: Ac-; -NH2
B6: Compound 28 (peptide)
peptide: SGDLMPWNLVRIGLLR
B7: Compound 96 (peptide)
peptide: FCLWNLKRIGAQCWF
modifications: Ac-; -NH2; disulfide
B8: SEQ ID NO 391 (peptide)
peptide: SGCSDLWNLARIYPMC
B9: SEQ ID NO 390 (peptide)
peptide: SGGSMPWNLERIFALH
B10: SEQ ID NO 386 (peptide)
peptide: SGCRLPWNLQRIGLPC
B11: SEQ ID NO 389 (peptide)
peptide: SGDLMPWNLVRIGLLR
B12: SEQ ID NO 384 (peptide)
peptide: SGGACPWNLERIGLSC
B13: SEQ ID NO 388 (peptide)
peptide: SGACVKPCIAGNIIR
B14: SEQ ID NO 383 (peptide)
peptide: SGCFIPWNLQRIGLLC
B15: SEQ ID NO 385 (peptide)
peptide: SGDFIPWNLVRIGLLR
B16: Compound 88 (peptide)
peptide: FCLWNLARIGSQCWF
modifications: Ac-; -NH2; disulfide

The target in one test is proprotein convertase subtilisin/kexin type 9 (PCSK9) (human) (UniProt Q8NBP7). As to the kind of experiment: SPR. Background: Surface plasmon resonance follows binding to a sensor surface in real time, without labels.
For B1, the binding entry is on record as “binds”.

Consider B2, for which the binding result is on record as “binds”. On to B3, for which the binding entry is “binds”. Take B4: the binding entry is listed as “binds”. As to B5, the binding result is “binds”. On to B6, for which the binding entry was “binds”.

As to B7, the binding entry is “binds”.

The next test shares this target. As to the kind of experiment: phage spot ELISA. For orientation: ELISA stands for enzyme-linked immunosorbent assay.
As to B8, the binding entry was “binds”. Still for that read-out and setting: with B9 the entry was “binds”; with B10, “binds”; with B11, “binds”. On the same count and under the same terms, next, B12: “binds”; B13: “binds”.

Consider B14, for which the binding entry is given as “binds”. Regarding B15, the binding entry is “binds”.

The target is the same in a further test. As to the kind of experiment: TR-FRET competition, EGF(A)-Fc as competitor. (In general: TR-FRET usually uses a lanthanide donor and a delayed reading to cut background.)
Consider B16, for which the binding result is “binds”.
